# Structures can show the parent of a compound that is named as a salt. This is one part of the list. The calls rarely recur for the same compound in another form.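 Kinases, fused to nanoluciferase, were expressed in K562 cells; luminescence was measured every 4 h from 2 to 18 h as percent of control (DMSO = 100%, positive control = 0%). A time point is decreased if signal falls significantly (2 sigma). Hits were called by the authors by a rule that is not shown; the count of time points alone does not decide it.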
# The chains behind the UniProt entries cited, without tags or fusion partners.
# UniProt Q16620, whole entry, looked up: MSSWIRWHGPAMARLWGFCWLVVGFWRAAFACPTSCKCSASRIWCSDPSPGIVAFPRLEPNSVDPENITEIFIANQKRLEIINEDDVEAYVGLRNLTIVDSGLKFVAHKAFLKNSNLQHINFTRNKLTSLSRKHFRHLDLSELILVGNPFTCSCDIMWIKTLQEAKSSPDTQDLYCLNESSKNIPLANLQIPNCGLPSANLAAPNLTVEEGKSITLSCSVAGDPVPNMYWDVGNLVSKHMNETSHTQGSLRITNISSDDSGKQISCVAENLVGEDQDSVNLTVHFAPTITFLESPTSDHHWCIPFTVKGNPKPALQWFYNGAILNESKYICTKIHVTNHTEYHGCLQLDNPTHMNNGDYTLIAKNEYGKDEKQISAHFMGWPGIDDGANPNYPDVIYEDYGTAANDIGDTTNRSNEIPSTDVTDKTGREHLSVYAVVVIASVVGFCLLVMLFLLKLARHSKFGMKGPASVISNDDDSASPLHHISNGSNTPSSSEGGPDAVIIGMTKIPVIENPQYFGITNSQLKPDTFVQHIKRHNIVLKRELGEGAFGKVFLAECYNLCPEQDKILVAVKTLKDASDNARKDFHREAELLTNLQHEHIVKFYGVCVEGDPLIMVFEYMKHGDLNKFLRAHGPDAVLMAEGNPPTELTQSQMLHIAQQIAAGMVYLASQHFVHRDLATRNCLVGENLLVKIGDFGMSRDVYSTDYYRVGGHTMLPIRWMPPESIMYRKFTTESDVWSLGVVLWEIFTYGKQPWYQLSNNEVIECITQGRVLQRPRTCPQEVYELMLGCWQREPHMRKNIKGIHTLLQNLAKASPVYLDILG
# Biological target: NTRK2 (UniProt Q16620)
# Assay: kinase-Nluc reporter destabilization hit call (1 = scored as downregulated) (binary); higher = compound decreases kinase abundance
# Conditions: K562; 2-18 h
row,Structure (SMILES),kinase-Nluc reporter destabilization hit call
1,C=CC(=O)N1CCC[C@@H](n2c(=O)n(-c3ccc(Oc4ccccc4)cc3)c3c(N)nccc32)C1 [Tolebrutinib] (10 µM),inactive: 0
2,C[C@]1(O)C[C@@](N)(c2ccc(-c3nc4n(c3-c3ccccc3)COc3ccncc3-4)cc2)C1 [TAS-117 (hydrochloride)] (10 µM),inactive: 0
3,CCOC(=O)C1=C[C@]2(CC)CCCN3CCc4c(n1c1ccccc41)[C@@H]32 [Vinpocetine] (10 µM),inactive: 0
4,CC(C)(C)NS(=O)(=O)c1cncc(-c2cc(F)c3nc(N)nn3c2)c1 (10 µM),inactive: 0
5,CC(C)(C)c1ccc(C(=O)Nc2cn3cc(-n4ccnc4)ccc3n2)cc1 (10 µM),inactive: 0
6,Cc1nc(NC(=O)N2CCC[C@H]2C(N)=O)sc1-c1csc(C(C)(C)C)n1 (10 µM),inactive: 0
7,N#Cc1cn([C@@H]2O[C@H](CO)[C@@H](O)[C@H]2O)c2nc[nH]c(=O)c12 [Jaspamycin] (10 µM),inactive: 0
8,Cc1ccc(-c2csc(Cn3nc(CC4OCCCO4)c4ccccc4c3=O)n2)cc1 (10 µM),inactive: 0
9,CNC(=O)c1c(C)oc2cc(Oc3ncnc4cc(OC)c(OC)cc34)ccc12 [Fruquintinib] (10 µM),inactive: 0
10,O=S(=O)(N=Cc1c(O)ccc2ccccc12)c1cccs1 (10 µM),inactive: 0
11,NC(=O)c1cccc2c(N[C@H](CN3CCC3)c3ccc(Cl)c(C(F)(F)F)c3)ncnc12 (10 µM),inactive: 0
12,CN1CCC(c2ccccc2CC(C)(C)Nc2nc(N3CCOCC3)nc(-n3c(S(C)(=O)=O)nc4ccccc43)n2)CC1 (10 µM),inactive: 0
13,O=c1ccc2cc(O)c(O)cc2o1 [Esculetin] (10 µM),inactive: 0
14,O=C(Nc1nc2cccc(-c3ccc(CN4CCS(=O)(=O)CC4)cc3)n2n1)C1CC1 [Filgotinib] (2.5 µM),inactive: 0
15,CC(C)(O)c1cc2nc(-c3cnc(N)nc3)nc(N3CCOCC3)c2s1 (2.5 µM),inactive: 0
16,Cn1cc(-c2ccc3ncc(Cc4ccc5ncccc5c4)n3n2)cn1 (10 µM),inactive: 0
17,"CC(=O)c1cc(O)ccc1O [2,5-Dihydroxyacetophenone] (10 µM)",inactive: 0

row,Structure (SMILES),kinase-Nluc reporter destabilization hit call
1,COc1ccc(COc2cc3oc(=O)c4cc(C(C)O)ccc4c3cc2OC)cc1 (stereo not drawn) [Palomid 529] (2.5 µM),inactive: 0
2,O=C(CC(c1ccccc1)C(C(=O)O)C(=O)O)c1ccc(C(F)(F)F)cc1 (stereo not drawn) (10 µM),inactive: 0
3,CC(C)[C@H](CO)Nc1nc(Nc2ccc(C(=O)O)c(Cl)c2)c2ncn(C(C)C)c2n1 [Purvalanol B] (10 µM),inactive: 0
4,COc1cc2nccc(Oc3ccc(NC(=O)Nc4ccc(F)cc4F)c(F)c3)c2cc1OC (10 µM),inactive: 0
5,N#C/C(=C\c1ccc[nH]1)c1ccc(Cl)c(Cl)c1 (2.5 µM),inactive: 0
6,O=c1cc(-c2ccc(O)cc2)oc2cc(O)c(O)c(O)c12 [Scutellarein] (10 µM),inactive: 0
7,CC(C)n1nc(C#Cc2ccccc2)c2c(N)ncnc21 (10 µM),inactive: 0
8,O=C(N=c1sccn1Cc1ccccc1)c1c[nH]c2ncccc12 (10 µM),inactive: 0
9,CC(C)=C/C=C1\O[C@@H]2CC(C)=CC(=O)[C@@H]2[C@]1(C)O [Bisabolangelone] (10 µM),inactive: 0
10,COc1ccc(C2CC(c3ccc(Cl)cc3)=NN2c2nc(-c3ccncc3)cs2)cc1 (stereo not drawn) [mTOR inhibitor-8] (10 µM),inactive: 0
11,Cc1cc(F)c(Nc2ncnc3cc(OCc4ccccc4)ccc23)cc1O (10 µM),inactive: 0
12,CNCCOc1ccccc1C(C)(C)Nc1nccn(-c2cc(C(=O)NC3CC3)ccc2C)c1=O [p38α inhibitor 2] (10 µM),inactive: 0
13,CCn1c(-c2nonc2N)nc2c(C#CCO)ncc(OCCCN)c21 [AKT Kinase Inhibitor] (10 µM),inactive: 0
14,NC(=O)c1nc(-c2c(F)cccc2Cl)oc1Nc1ccc(C(=O)N2CCOCC2)cc1 (10 µM),inactive: 0
15,O=C(NCc1cccc(O)c1)c1cc2cc(F)ccc2[nH]1 (10 µM),inactive: 0
16,Cc1nc(Nc2ncc(C(=O)Nc3c(C)cccc3Cl)s2)cc(N2CCN(C(=O)CCCCCCC(=O)N[C@H](C(=O)N3C[C@H](O)C[C@H]3C(=O)NCc3ccc(-c4scnc4C)cc3)C(C)(C)C)CC2)n1 (2.5 µM),inactive: 0

# Some values from the results shown.
# Entry for `CC(C)[C@H](CO)Nc1nc(Nc2ccc(C(=O)O)c(Cl)c2)c2ncn(C(C)C)c2n1` [Purvalanol B] (10 µM) under kinase-Nluc reporter destabilization hit call: inactive: 0
# Entry for `O=C(NCc1cccc(O)c1)c1cc2cc(F)ccc2[nH]1` (10 µM) under kinase-Nluc reporter destabilization hit call: inactive: 0
